Values of other authors, collected in patent US20070254835A1, “COMPOSITION AND METHOD FOR TREATING NEUROLOGICAL DISORDERS” (priority 2003, published 2007).
At least one structure is not confirmed: it was looked up by name or label, or the drawing left a doubt.

What was measured:
HDAC = settings: in words only; literature

CCC(=O)CCCCC[C@@H]1NC(=O)[C@H]2CCCCN2C(=O)[C@H]([C@@H](C)CC)NC(=O)[C@H](Cc2cn(OC)c3ccccc23)NC1=O [Apicidin, apicidin]
antiprotozoal activity (protozoa): potent, broad-spectrum | concentration at which HDAC is inhibited (HDAC): nanomolar concentrations
